According to paper PMC7583736:
No constants are given. Whether binding was seen depends on the method and setting. In cells and extracts the contact can be indirect. Some binding calls cover weakened binding; strength is not graded here. Where a sequence is shown, tags or fusion partners need not be part of it.

Chains of the proteins cited; added tags and fusions are not shown.
UniProt Q9UIV1: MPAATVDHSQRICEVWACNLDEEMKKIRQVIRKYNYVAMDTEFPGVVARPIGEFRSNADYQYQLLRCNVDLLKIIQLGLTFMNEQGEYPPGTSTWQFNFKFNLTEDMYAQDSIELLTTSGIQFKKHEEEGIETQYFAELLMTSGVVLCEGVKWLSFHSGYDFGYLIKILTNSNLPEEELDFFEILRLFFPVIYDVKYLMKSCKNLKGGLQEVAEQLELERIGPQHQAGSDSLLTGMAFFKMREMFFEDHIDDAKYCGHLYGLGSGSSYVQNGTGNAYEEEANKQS

Key:
[1] = biological target: T1, HA-ZFP36L1 (ZFP36 ring finger protein like 1) (human) (UniProt Q07352); test: co-IP; lysate of HepG2 cells transfected with HA-ZFP36L1, immunoprecipitated with anti-HA, immunoblot for endogenous CNOT7; cells treated with or without U0126 for one hour before TCN or PMA for four hours (Figure 5b)
T1 sequence: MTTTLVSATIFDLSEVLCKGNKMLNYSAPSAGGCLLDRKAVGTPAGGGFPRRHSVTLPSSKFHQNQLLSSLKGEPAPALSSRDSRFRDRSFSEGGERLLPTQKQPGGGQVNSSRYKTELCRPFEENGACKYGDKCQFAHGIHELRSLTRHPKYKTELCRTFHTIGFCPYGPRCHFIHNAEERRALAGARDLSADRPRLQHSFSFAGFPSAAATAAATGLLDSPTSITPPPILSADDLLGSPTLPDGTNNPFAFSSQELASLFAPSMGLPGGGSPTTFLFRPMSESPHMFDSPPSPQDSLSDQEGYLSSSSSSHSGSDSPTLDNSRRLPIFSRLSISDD

[2] = biological target: FLAG-CNOT7 (human) (UniProt Q9UIV1); test: co-IP; HepG2 lysate immunoprecipitated with anti-FLAG (F7425) overnight at 4 °C, Protein G Mag Sepharose, washed with co-IP buffer, immunoblot; cells treated with or without U0126 for one hour before TCN or PMA for four hours (Figure 5a, 5c)

## endogenous CNOT7 (from UniProt Q9UIV1 1-285)
[1]
  binding: binds

B1: HA-ZFP36L1 (ZFP36 ring finger protein like 1) (protein, UniProt Q07352 1-338)
chain: T1 sequence
[2]
  binding: binds

B2: endogenous ZFP36L1 (protein, UniProt Q07352 1-338)
chain: T1 sequence
[2]
  binding: binds
